Data taken from patent US20200148768A1.
Results are given in words; binding and its absence hold for the method and conditions named. Some results given as binding are weak or reduced against the parent protein; the word gives no strength. One block for each binder: values may come before it.

Sequences of proteins named here, by UniProt entry; tags and fusion partners are left off. A change or cut given only in a name is not applied to a line headed by its entry.
UniProt Q62556: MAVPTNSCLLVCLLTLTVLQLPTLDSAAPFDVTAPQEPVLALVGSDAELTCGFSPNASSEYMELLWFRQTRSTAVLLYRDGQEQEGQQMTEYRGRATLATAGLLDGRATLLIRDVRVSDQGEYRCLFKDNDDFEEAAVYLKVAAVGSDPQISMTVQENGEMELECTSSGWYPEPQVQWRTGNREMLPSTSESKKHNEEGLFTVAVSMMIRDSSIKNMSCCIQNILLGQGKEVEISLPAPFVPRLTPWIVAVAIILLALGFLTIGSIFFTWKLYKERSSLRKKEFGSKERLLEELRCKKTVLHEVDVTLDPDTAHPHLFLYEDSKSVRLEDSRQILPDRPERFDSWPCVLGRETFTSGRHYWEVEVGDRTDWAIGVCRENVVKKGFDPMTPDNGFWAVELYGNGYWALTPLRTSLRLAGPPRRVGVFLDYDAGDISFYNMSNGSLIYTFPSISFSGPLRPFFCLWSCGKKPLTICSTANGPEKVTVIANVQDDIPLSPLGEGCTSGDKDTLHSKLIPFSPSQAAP
UniProt Q13410: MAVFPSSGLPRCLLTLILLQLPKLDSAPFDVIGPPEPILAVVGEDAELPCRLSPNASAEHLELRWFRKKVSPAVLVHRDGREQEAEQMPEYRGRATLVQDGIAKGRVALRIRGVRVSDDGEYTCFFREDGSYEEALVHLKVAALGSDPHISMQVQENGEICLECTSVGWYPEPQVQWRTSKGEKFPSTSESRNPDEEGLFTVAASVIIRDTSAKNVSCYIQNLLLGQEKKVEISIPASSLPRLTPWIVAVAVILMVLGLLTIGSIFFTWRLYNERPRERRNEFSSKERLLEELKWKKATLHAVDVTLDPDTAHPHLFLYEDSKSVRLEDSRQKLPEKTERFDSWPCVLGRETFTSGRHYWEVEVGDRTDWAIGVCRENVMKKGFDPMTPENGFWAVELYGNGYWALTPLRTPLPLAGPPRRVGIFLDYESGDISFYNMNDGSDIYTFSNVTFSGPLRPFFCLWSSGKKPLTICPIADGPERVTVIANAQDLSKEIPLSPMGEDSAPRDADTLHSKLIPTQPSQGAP

Key:
[1] = biological target: mouse BTN1A1-ECD-Fc (mouse; human) (UniProt Q62556); experiment: SPR (Biacore X-100), antibody captured on chip
[2] = biological target: mouse BTN1A1-ECD-Fc (mouse; human) (UniProt Q62556); experiment: SPR (Biacore), mouse BTN1A1-Fc 2-64 nM over immobilized STC1011
[3] = biological target: human BTN1A1 wild type, expressed on cells (human) (UniProt Q13410); experiment: summary of FACS and western blot
[4] = biological target: human BTN1A1 wild type, expressed on cells (human) (UniProt Q13410); experiment: confocal immunofluorescence, HEK293T expressing BTN1A1 WT

binding [1]: binds
B1: STC1029 (antibody, V domains shown)
VH: EVQLQQSGPELVKPGASVKISCKASGYSFTGYFMNWVKQSHGKSLEWIGRINPYNGDTFYNQKFKDKATLTVDTSSSTAHMELRSLTSEESAVYYCARWTTVINFDYWGQGTTLTVSS
VL: SIVMTQTPKFLLVSAGDRVTITCKASQSVSYDVVWYQQKPGQSPKLLMYYVSNRYTGVPDRFTGSGYGTDFTFTISTVQAEDLAVYFCQQDYSSPPTFGGGTKLEIK

binding [1]: binds
binding [2]: binds
B2: STC1011 (antibody, V domains shown)
VH: EVQLQQSGPELVKPGDSVKMSCKASGYTFTDYYMDWVKQSHGKSLEWIGYISPNNGGTKYNQKFKGKATLTVDKSSSTAYMELHSLTSEDSAVYYCAREPDLLYYFDYWGQGTTLTVSS
VL: DIVMSQSPSSLAVSVGEKVIMSCKSSQSLLYFSNQKNYLAWYQQKPGQSPRLLIYWASTRESGVPDRFTGSGSGTDFTLTISSVKAEDLAVYYCQQYYSYPWTFGGGTKLEIK

binding [3]: binds
binding [4]: binds
B3: STC810 (antibody, V domains shown)
VH: EVQLQQSGPELVKPGASVKISCKASGYTFTHYNMDWVKQSHGKSLEWIGYIYPSNGGTGYNQKFKSRATLTVDKSSSTAYMELHSLTSEDSAVYYCARGAYHYGSSYAYWYFDVWGAGTTVTVSS
VL: DIQMTQTTSSLSASLGDRVTISCSASQDISNYLNWYQQKPDETVKLLISYTSSLHSGVPSRFSGSGSGTDYSLTISNLAPEDIATYYCQQSSKLPFTFGSGTELEIKR
